Article PMC12481580 (Journal of Medicinal Chemistry, 2025)

Columns and labels:
[1] = general procedure: Fmoc solid-phase peptide synthesis; Fmoc-TMSAla-2-ClTrt resin; HOBt/HBTU/DIPEA; details: whole synthesis, 1.00 mmol/g
[2] = general procedure: Fmoc solid-phase peptide synthesis; 2-ClTrt resin (Fmoc-TMSAla-2-ClTrt, 1.00 mmol/g); HOBt/HBTU/DIPEA; details: whole synthesis, hydrotrifluoroacetate (TFA salt); for final HPLC purity: 220 nm; for isolated yield: scale 50 mg, 1.00 mmol/g
[3] = scale 75 mg, Tris(hydrotrifluoroacetate)
[4] = scale 75 mg, hydrotrifluoroacetate (TFA salt)
[5] = scale 50 mg, hydrotrifluoroacetate (TFA salt)

| Substance | isolated mass [1, 3] [mg] | isolated yield [1, 4] [%] | final HPLC purity [2] [%] | isolated mass [1, 5] [mg] | isolated yield [2] [%] | isolated mass ([1]; scale 50 mg, Tris(hydrotrifluoroacetate)) [mg] | isolated yield [1, 5] [%] |
| --- | --- | --- | --- | --- | --- | --- | --- |
| PEPTIDE1{R.R.P.Y.I.[TMSAla]}$$$$V2.0 | 34.1 | 38 | >99 | – | – | – | – |
| PEPTIDE1{[NMeArg].R.P.[bbdiMe-D-Tyr].I.[TMSAla]}$$$$V2.0 | – | – | 97 | 21.1 | 34 | – | – |
| PEPTIDE1{[NMeArg].R.P.[bbdiMe-L-Tyr].I.[TMSAla]}$$$$V2.0 | – | – | 99 | 23.0 | 37 | – | – |
| Lys-Lys-Pro-Tyr-Ile-β-trimethylsilyl-Ala Tris(hydrotrifluoroacetate) | – | – | >99 | – | – | 29.4 | 52 |
| PEPTIDE1{[NMeArg].R.P.Y.I.[TMSAla]}$$$$V2.0 | 40.3 | 44 | >99 | – | – | – | – |

Strings that start with PEPTIDE1 are HELM notation: dots part the residues, brackets hold end groups and non-standard residues.
